Data as given in PubChem BioAssay AID1224828 (NIAID, 2016).
The whole screen tested about 17,000 reagents; shown is a random part of them. 762 of all reagents (4.5%) were called active. 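Active calls include both raised and lowered p65 entry, mostly lowered; wells with fewer than 50 cells lack a z-score.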 Raw values vary from plate to plate and are shown uncorrected. Unmarked entries are inactive.

- Purpose: 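Knock-downs that increase or decrease LPS-induced p65 nuclear translocation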 (primary screen)
- Cells: mouse RAW264.7 G9 macrophage reporter cells (GFP-p65, Tnf promoter-mCherry)
- Reagent: siRNA pool against mouse genes, 100 nM
- Duration: 2 days siRNA transfection, then 40 min LPS before fixation
- Conditions: LPS (Salmonella minnesota R595) at 10 ng/ml
- Detection: 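Imaged p65 nuclear translocation ratio, normalised to the plate median, converted to robust z-scores and averaged across two replicates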
- Scale: p65 translocation robust z-score: higher = more nuclear NF-kappaB p65 after LPS than the plate median; nuclear/cytoplasmic p65 ratio: higher = more nuclear NF-kappaB p65
- Rule for the call: 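Called active when z exceeds 3.3 or falls under -1.56 (median of Tlr4 controls), giving activity score of at least 50; no calls for control wells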
- Calls: active = hit (p65 shift raised or lowered); inactive = no clear change

target	p65 translocation robust z-score	nuclear/cytoplasmic p65 ratio, rep 1	nuclear/cytoplasmic p65 ratio, rep 2	low cell count flag
Raet1b (GeneID 19369)	0.33	1.32	1.34	enough cells to score
Lysmd4 (GeneID 75099)		1.24	1.28	fewer than 50 cells per well; well left out of scoring
Cd209a (GeneID 170786)	-1.94 (active)	1.31	1.5	enough cells to score
Wnk2 (GeneID 75607)	-0.34	1.57	1.39	enough cells to score
Myo7a (GeneID 17921)	-0.88	1.4	1.17	enough cells to score
Them5 (GeneID 66198)	-1.44	1.3	1.17	enough cells to score
Zfp318 (GeneID 57908)	0.09	1.41	1.27	enough cells to score
Nemp2 (GeneID 227094)	2.87	1.73	1.75	enough cells to score
Ptdss2 (GeneID 27388)	-2.83 (active)	1.01	1.11	enough cells to score
Tmem184a (GeneID 231832)	0.47	1.64	1.93	enough cells to score
Or4c1 (GeneID 258446)	-1.64 (active)	1.33	1.29	enough cells to score
Ubtf (GeneID 21429)	-0.04	1.61	1.4	enough cells to score
Arhgap11a (GeneID 228482)	1.39	1.51	1.85	enough cells to score
Rcn2 (GeneID 26611)	2.56	1.75	1.51	enough cells to score
Eif4a3 (GeneID 192170)	0.5	1.64	1.62	enough cells to score
Disc1 (GeneID 244667)	0	1.5	1.35	enough cells to score
Pprc1 (GeneID 226169)	-0.64	1.46	1.28	enough cells to score
Tmem205 (GeneID 235043)	-1.91 (active)	1.42	1.43	enough cells to score
Zscan21 (GeneID 22697)	-1.68 (active)	1.15	1.09	enough cells to score
Slc7a4 (GeneID 224022)	1.72	1.61	1.46	enough cells to score
Tns1 (GeneID 21961)	0.2	1.52	1.36	enough cells to score
Apbb1ip (GeneID 54519)	0.61	1.62	1.54	enough cells to score
Trmt10a (GeneID 108943)		1.46	1.18	fewer than 50 cells per well; well left out of scoring
Ddx18 (GeneID 66942)	-0.15	1.43	1.39	enough cells to score

Targets above whose target name begins with A or a (2):
target	p65 translocation robust z-score	nuclear/cytoplasmic p65 ratio, rep 1	nuclear/cytoplasmic p65 ratio, rep 2	low cell count flag
Arhgap11a (GeneID 228482)	1.39	1.51	1.85	enough cells to score
Apbb1ip (GeneID 54519)	0.61	1.62	1.54	enough cells to score
